Test results published in US5416118A, “Bicyclic amides as inhibitors of acyl-coenzyme A: cholesterol acyl transferase” (Schering Corporation, priority 1993, dated 1995).
The name of at least one read-out is uncertain.

System: cholesteryl esters
Assay: In Vivo Assay of Hypolipidemic Agents Using the Hyperlipidemic Hamster
Conditions: oral gavage once daily, 7 days, versus control
Method: In Vivo Assay of Hypolipidemic Agents Using the Hyperlipidemic Hamster
Hamsters are separated into groups of six and given a control cholesterol diet (Pudna Chow #5001 containing 0.5% cholesterol) for seven days. Diet consumption is monitored to determine dietary cholesterol exposure in the face of test compounds. The animals are dosed with the test compound once daily beginning with the initiation of diet. Dosing is by oral gavage of 0.2 mL of corn oil alone (control group) or solution (or suspension) of test compound in corn oil. All animals moribund or in poor physical condition are euthanized. After seven days, the animals are anesthetized by […] of ketamine and sacrificed by decapitation. Blood is collected into vacutainer tubes containing EDTA for plasma lipid analysis and the liver excised for tissue lipid analysis. Data is reported as percent reduction of lipid versus control.
Using the assay methods described above, the compounds of Examples 1-9 were tested for in vitro ACAT inhibitory activity and for the ability to lower the level of cholesteryl esters in vivo.

| Compound | % Reduction in cholesteryl esters (5 mpk) | % Reduction in cholesteryl esters (1 mpk) |
| --- | --- | --- |
| O=C(N[C@@H]1c2ccccc2C[C@@H]1c1ccc(O)cc1)C(c1ccccc1)c1ccccc1 (single isomer, unassigned) [Example 3AA] | -88% | – |
| O=C(N[C@@H]1c2ccccc2C[C@@H]1c1ccc(O)cc1)C(c1ccccc1)c1ccccc1 (single isomer, unassigned) [Example 3BB] | 0% | 0% |
